Out of some 580,000 compounds screened, about 6,100 (1.1%) were called active. This list was built around the results that the source calls inconclusive (neither active nor inactive); the mix of calls is not that of the screen. The call rests on the fitted dose curve; in most records, active means well fitted inhibition curve with a large enough effect; inconclusive means small, poorly fitted or top-dose-only effect, or another doubt; inactive means no such curve, though single readings can be large or run the other way. Where the call is inconclusive, the potency comes from a doubtful curve fit. Numbered stars: 1 amine (or outer) side, 2 acyl side, 3 side chain; on linkers, the order of the positions; unused ones are H or OH. Bridge positions count the residues as written; N and C are the ends. Square brackets hold non-standard residues; d marks the D form. Peptide text beside a SMILES is read from it. I, II: the chains in the order shown. Actinocin(9to1) = Cc1c2oc3c(C)ccc(C(=O)[*:1])c3nc-2c(C(=O)[*:2])c(N)c1=O; NMeV = CN[CH](C(=O)O)C(C)C; Sar = CNCC(=O)O
molecular target: Polyunsaturated fatty acid lipoxygenase ALOX12 (Homo sapiens) (UniProt P18054); assay: Primary qHTS assay for inhibitors of human arachidonate 12S-lipoxygenase (ALOX12): Round 2; details: purified 12hLO, xylenol orange hydroperoxide absorbance; activity change, negative = inhibition: at 108 µM (top of the series) unless noted
Outline: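 Purified human 12hLO (150 nM final) in 25 mM Hepes, 0.01% Triton X-100, pH 7.0 was preincubated 15 min at room temperature with compound. Then 40 uM arachidonic acid was added, 30 min. Hydroperoxide was read by Fe-XO absorbance ratio 573/405 nm.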
On the % scale 0 is the no-effect control and ±100 the full control effect; potency means the concentration at half of the fitted maximal effect.

Sequences of proteins named here, by UniProt entry; tags and fusion partners are left off. A change or cut given only in a name is not applied to a line headed by its entry.
UniProt P18054: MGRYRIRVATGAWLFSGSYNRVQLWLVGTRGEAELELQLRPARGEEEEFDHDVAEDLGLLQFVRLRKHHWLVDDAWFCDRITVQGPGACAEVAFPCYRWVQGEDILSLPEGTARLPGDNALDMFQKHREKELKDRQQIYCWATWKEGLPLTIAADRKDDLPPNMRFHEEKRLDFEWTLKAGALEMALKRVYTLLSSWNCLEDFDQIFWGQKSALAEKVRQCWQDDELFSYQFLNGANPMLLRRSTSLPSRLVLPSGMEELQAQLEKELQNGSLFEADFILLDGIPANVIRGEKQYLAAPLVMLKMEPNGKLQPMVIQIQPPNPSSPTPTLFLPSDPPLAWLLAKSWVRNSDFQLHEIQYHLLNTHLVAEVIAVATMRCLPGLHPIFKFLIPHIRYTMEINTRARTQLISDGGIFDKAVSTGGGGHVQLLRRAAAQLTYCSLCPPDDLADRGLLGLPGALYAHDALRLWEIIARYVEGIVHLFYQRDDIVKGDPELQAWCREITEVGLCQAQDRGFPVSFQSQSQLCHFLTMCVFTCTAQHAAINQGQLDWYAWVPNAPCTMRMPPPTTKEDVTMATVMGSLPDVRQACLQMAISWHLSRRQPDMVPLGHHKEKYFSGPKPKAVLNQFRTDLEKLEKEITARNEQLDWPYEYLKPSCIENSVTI

| SMILES | Potency | activity change, negative = inhibition |
| --- | --- | --- |
| CCCCOc1ccc2c(C)c(C)c(=O)oc2c1 | inconclusive: 0.141 µM [inhibitor, full curve, poor fit] |  |
| COc1ccc(Cl)cc1NC(=O)CN(C)C(=O)c1ccc2c(c1)CC(c1ccccc1)OC2=O (stereo unspecified) |  | inactive: 150% |
| Oc1ccc(Oc2ccc3c(C(F)(F)F)cc(C(F)(F)F)nc3n2)cc1 | inconclusive: 8.91 µM [inhibitor, full curve, poor fit] |  |
| Cc1c2oc3c(C)ccc(C(=O)NC4C(=O)NC(C(C)C)C(=O)N5CCCC5C(=O)N(C)CC(=O)N(C)C(C(C)C)C(=O)OC4C)c3nc-2c(C(=O)NC2C(=O)NC(C(C)C)C(=O)N3CCCC3C(=O)N(C)CC(=O)N(C)C(C(C)C)C(=O)OC2C)c(N)c1=O (stereo unspecified) (I: TVP[Sar][NMeV] / II: TVP[Sar][NMeV]; ester I:1-I:C, II:1-II:C; linker I:N-II:N via Actinocin(9to1); configuration not given here) | inconclusive: 27.3 µM [inhibitor, partial curve, poor fit] |  |
| COc1cccc(NC(=O)c2nnn(Cc3nc(-c4ccc(OC(C)C)cc4)oc3C)c2N)c1 |  | inactive: 1.66% |
| COC(=O)c1ccccc1NC(=O)CN1N=C(c2ccccc2)c2cc(Cl)ccc2S1(=O)=O | inconclusive: 7.94 µM [inhibitor, full curve, poor fit] |  |
| C=CCN(c1ccccc1OC)S(=O)(=O)c1ccc(Cl)c(C(=O)Nc2ccc(N3CCOCC3)cc2)c1 |  | inactive: -17.8% |
| Cn1cnc2nc(Cl)nc(Cl)c21 | inconclusive: 79.4 µM [inhibitor, partial curve, poor fit] |  |
| S=C(NCCN1CCOCC1)N/N=C/c1ccccc1 |  | inactive: 0% |
| CN1CC(=O)N(C2CCCC2)Cc2c(NCc3cccc(F)c3)ncnc21 | inconclusive: 39.8 µM [inhibitor, full curve, poor fit] |  |
| CCc1c(C)nc2cc(-c3ccc(OC)c(OC)c3)nn2c1N1CCCC1 |  | inactive: -9.96% |
| COC(=O)c1cccc(NC(=S)N[C@H]2CO[C@H]3[C@@H]2OC[C@H]3OC(=O)Nc2ccc(Oc3ccccc3)cc2)c1 | inconclusive: 79.4 µM [inhibitor, partial curve] |  |
| CCN(C(=O)CSc1cc(-c2ccccc2)c2ccc(OC)cc2n1)C1CCS(=O)(=O)C1 (stereo unspecified) |  | inactive: 25.8% |
| N#Cc1c(NC(=O)CCCC(=O)O)sc2c1CCCCC2 | inconclusive: 79.4 µM [inhibitor, partial curve, poor fit] |  |
| COCCC(C)NC(=O)c1cc(=O)[nH]c2ccccc12 (stereo unspecified) |  | inactive: -0.746% |
| O=C(Nc1cccc(C(F)(F)F)c1)Nc1ccc(N2CCCC2)c(S(=O)(=O)Nc2ccccc2Cl)c1 |  | inactive: -24.6% |

Reprinted at random: 2 records from the list

| SMILES | Potency | activity change, negative = inhibition |
| --- | --- | --- |
| C=CCN(c1ccccc1OC)S(=O)(=O)c1ccc(Cl)c(C(=O)Nc2ccc(N3CCOCC3)cc2)c1 |  | inactive: -17.8% |
| Oc1ccc(Oc2ccc3c(C(F)(F)F)cc(C(F)(F)F)nc3n2)cc1 | inconclusive: 8.91 µM [inhibitor, full curve, poor fit] |  |

Reference: PubChem BioAssay AID1671190 (National Center for Advancing Translational Sciences (NCATS), 2021)
